Some of the results follow. Shown are side measurements of this screen, not its main read-out; they come without a call. The list favours compounds with an active or inconclusive main result. Words in brackets tell the shape of the fitted curve; partial curves, single points and poor fits give uncertain potencies.
Experiment: qHTS Assay for Lipid Storage Modulators in Drosophila S3 Cells;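 on cell number change: cells counted by Cell Tracker Red CMTPX staining in the red channel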
Conditions: BODIPY lipid droplet fluorescence, 18-24 h; for cell number change: measured here: cell count max response, cells fed with added oleic acid
Procedure, shortened: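 Laser-scanning cytometry quantifies lipid droplet accumulation (500–530 nm total intensity; droplet/cell object ratio) in oleic acid-fed (400 uM added) Drosophila S3 cells treated with a concentration series. 20 uM Triacsin C defined 100% inhibition.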

[1] = measured here: cell number channel AC50, cells fed with added oleic acid
[2] = measured here: lipid fluorescence (Fed channel) AC50, cells fed with added oleic acid

| SMILES | cell number change | AC50 [1] | AC50 [2] |
| --- | --- | --- | --- |
| CCCCn1c(NC(C)=O)c(C#N)c2nc3ccccc3nc21 | -33.8% | 5.8 µM [falling, full curve, poor fit] | 7.31 µM [falling, partial curve] |
| CC(=O)Nc1ccc(NS(=O)(=O)Cc2ccccc2)cc1 | -8.53% | 0.0517 µM [falling, full curve, poor fit] | 0.366 µM [falling, full curve, poor fit] |
| CN(C)CCN(C(=O)c1ccc2c(c1)CCCC2)c1nc2c(F)cccc2s1 | 36.9% |  | 0.731 µM [rising, full curve, poor fit] |
| CCN(CC)CCCN1C(=O)C(O)=C(C(C)=O)C1c1cccc(OC)c1 (centres undefined) | -23.6% |  | 3.26 µM [falling, partial curve] |
| Cn1cnnc1SCC(=O)Nc1ccc2nc(SCc3ccccc3F)sc2c1 | 40.8% | 29.1 µM [rising, single point] |  |
| Cc1cccc(-c2nc(C#N)c(NCC3CCCO3)o2)c1 (centres undefined) | 16.5% |  | 5.8 µM [rising, full curve, poor fit] |
| CC(C)(C)c1nn(-c2ccccc2)c2[nH]c(=O)c(CNCc3ccc4c(c3)OCO4)cc12 | -36.3% | 6.51 µM [falling, partial curve] | 7.31 µM [falling, partial curve] |
| CCOCCCNC(=O)c1cc(Nc2ccc(OC)cc2OC)nc2ccccc12 | -12.5% |  | 29.1 µM [falling, single point] |
| COC(=O)c1ccc(C(=O)OC)c(NC(=O)CCC(=O)O)c1 | -2.27% |  | 3.26 µM [rising, partial curve] |
| Cc1ccc(-c2cc(C(=O)OC3CCOC3=O)c3ccccc3n2)c(C)c1 (centres undefined) | 8.27% |  | 0.291 µM [falling, partial curve, poor fit] |
| C=CCN(c1ccccc1)S(=O)(=O)c1cccc(C(=O)N2CCCC2)c1 |  | 2.31 µM [rising, partial curve] |  |
| CCn1cnc2sc(C(=O)Nc3ccccc3OC)c(C)c2c1=O | 18.4% |  | 0.206 µM [rising, full curve] |
| CC(C)C(=O)Nc1nc2c(ncn2C2CC(O)C(CO)O2)c(=O)[nH]1 (centres undefined) | 1.31% |  | 18.4 µM [falling, single point] |
| COc1ccc(NC(=O)COc2cccc3c2CCN(Cc2cccnc2)C3=O)c(OC)c1 | -31.4% | 11.6 µM [falling, single point] | 20.6 µM [falling, partial curve] |
| Cc1ccc(N2C(=O)CC(Cn3nc(C)cc3C)C2=O)cc1 (centres undefined) | 1.02% |  | 0.82 µM [falling, full curve, poor fit] |
| CCNC(=O)/C(=C\C=C\c1ccccc1)NC(=O)c1ccc(Br)o1 | -10.3% |  | 18.4 µM [rising, partial curve] |
| O=C(NCC1COc2ccccc2O1)c1cccc(S(=O)(=O)NCc2ccccc2)c1 (centres undefined) | -5.84% |  |  |
| O=C1CCc2cc(NS(=O)(=O)c3ccc([N+](=O)[O-])cc3)cc3c2N1CC3 | -10.5% |  |  |
| Cc1occc1-c1nnc(SCC(=O)Nc2ccccc2)n1Cc1ccccc1 | 8.99% |  | 0.366 µM [rising, full curve] |
| Cc1ccc(SCC(=O)OCC(=O)N(C)CC(=O)Nc2ccc(F)cc2)cc1C | -85.1% | 13 µM [falling, partial curve] |  |

| SMILES | cell number change | AC50 [1] | AC50 [2] |
| --- | --- | --- | --- |
| CC1CCN(CCCNC(=O)c2ccc(N3CCCC3=O)cc2)CC1 | -36.9% | 16.4 µM [falling, partial curve, poor fit] |  |
| O=C(Nc1ccccc1)/C(=C\c1ccco1)NC(=O)c1ccco1 | -17.5% |  |  |
| CC(=O)c1cccc(NC(=O)CC2Oc3ccc(C)cc3NC2=O)c1 (centres undefined) | -4.26% |  |  |
| CCN1CCN(CCNC(=O)c2ccc(/C=C3/Sc4ccccc4N(Cc4cccc(Cl)c4)C3=O)cc2)CC1 | -18.4% |  | 29.1 µM [falling, single point] |
| Cc1nnc2n(C3CCCCC3)c(=O)c3c4c(sc3n12)COC(C)(C)C4 | -2.33% |  | 2.91 µM [falling, full curve] |
| CC1CCN(C(=O)C2COc3ccccc3O2)CC1 (centres undefined) | 12.6% | 0.461 µM [falling, partial curve, poor fit] | 0.58 µM [falling, partial curve, poor fit] |
| Cc1ccc(CNC(=O)c2ccc(F)c(S(=O)(=O)N3CCOCC3)c2)cc1 |  | 3.26 µM [rising, single point] |  |
| COc1ccc(OCCCC(=O)NCc2ccco2)cc1 | -50.8% | 2.59 µM [falling, full curve] |  |
| Fc1ccccc1CNc1cc(Cl)cc(Cl)c1 | -62.6% | 29.1 µM [falling, single point] |  |
| COc1ccc(NC(=O)CN2C(=O)COc3ccc(S(=O)(=O)N4CCOCC4)cc32)cc1Cl | 6.75% |  | 6.51 µM [rising, single point] |
| CC(=O)NC(=S)Nc1ccc([N+](=O)[O-])cc1C | -11.1% | 0.651 µM [rising, partial curve, poor fit] |  |
| O=C(COC(=O)c1ncc(Cl)c(Cl)c1Cl)c1ccc(Cl)s1 | -41.8% | 10.3 µM [falling, partial curve, poor fit] | 25.9 µM [falling, single point] |
| O=C(CNC(=O)C1CCCCC1)Nc1ccccc1 | -2.67% | 0.731 µM [rising, partial curve, poor fit] |  |
| Nc1nc(-c2ccco2)nn1C(=O)c1ccccc1 | 16.6% |  | 29.1 µM [rising, single point] |
| COc1ccc(CN2CCSCC2)cc1O | -12.1% |  |  |
| CCOC(=O)Cn1cc(C=O)c2ccccc21 | -12% |  | 29.1 µM [falling, single point] |
| CCC1CCCCN1CCCNC(=O)c1ccc2c(c1)N(Cc1c(F)cccc1Cl)C(=O)CS2 (centres undefined) | 51.5% | 29.1 µM [rising, single point] |  |
| CC(Oc1ccc(Cl)cc1Cl)c1nc(-c2ccc(NC(=O)c3ccncc3)cc2)no1 (centres undefined) | -52.7% | 7.31 µM [falling, partial curve] | 6.51 µM [falling, partial curve] |
| CC1=CCC2C(=O)N(c3ccccc3OC(=O)c3ccccc3F)C(=O)C2C1 (centres undefined) | -2.82% |  | 0.58 µM [rising, full curve] |
| COc1ccccc1-c1c(C)oc2cc(OCC(=O)OCc3ccccc3)ccc2c1=O | 0.367% |  |  |

A different layout for 3 compounds above.
SMILES	cell number change	AC50 [1]	AC50 [2]
O=C(CNC(=O)C1CCCCC1)Nc1ccccc1	-2.67%	0.731 µM [rising, partial curve, poor fit]	
Nc1nc(-c2ccco2)nn1C(=O)c1ccccc1	16.6%		29.1 µM [rising, single point]
CCOC(=O)Cn1cc(C=O)c2ccccc21	-12%		29.1 µM [falling, single point]

Taken from above, two compounds:

| SMILES | cell number change | AC50 [1] | AC50 [2] |
| --- | --- | --- | --- |
| CCC1CCCCN1CCCNC(=O)c1ccc2c(c1)N(Cc1c(F)cccc1Cl)C(=O)CS2 (centres undefined) | 51.5% | 29.1 µM [rising, single point] |  |
| CC(Oc1ccc(Cl)cc1Cl)c1nc(-c2ccc(NC(=O)c3ccncc3)cc2)no1 (centres undefined) | -52.7% | 7.31 µM [falling, partial curve] | 6.51 µM [falling, partial curve] |

The listing continues.

| SMILES | cell number change | AC50 [1] | AC50 [2] |
| --- | --- | --- | --- |
| O=C(CCNC(=O)c1ccccc1Cl)Nc1nc(-c2ccc3ccccc3c2)cs1 | 3.34% |  | 0.58 µM [rising, single point] |
| CCOC(=O)c1nn(-c2ccc3c(c2)CCN3C(C)=O)cc1O | -16.8% |  | 0.184 µM [rising, full curve, poor fit] |
| CCCOc1ccc(-c2nc(C#N)c(N3CCc4ccccc4C3)o2)cc1 | 6.83% |  |  |
| Cc1ccc(-c2csc3nc(C)n(N)c(=O)c23)cc1 | 31.4% | 18.4 µM [rising, single point] |  |
| CCCCN(C(=O)COc1ccc(NC(C)=O)cc1)C1CCS(=O)(=O)C1 (centres undefined) | 28.6% |  |  |
| CC(=O)c1c(C)[nH]c(C(=O)COC(=O)CCSc2ccccc2)c1C | -35% | 1.84 µM [falling, partial curve] | 6.51 µM [rising, full curve, poor fit] |
| O=C(O)c1cc(NC(=O)c2ccccc2[N+](=O)[O-])ccc1O | 2.81% |  |  |
| COc1cc(NC(=O)c2cnn3c(C(F)F)cc(C4CC4)nc23)c(OC)cc1Cl | 10.6% | 3.66 µM [rising, single point] | 2.59 µM [rising, partial curve, poor fit] |
| COc1ccc(CNC(=O)C(=O)c2cn(CC(=O)N3CCCC3)c3ccccc23)cc1 | -27.7% | 3.26 µM [falling, full curve, poor fit] |  |
| Cc1cc(Cl)ccc1OCCCC(=O)Nc1cccc(-n2cnnn2)c1 | 21.5% |  |  |
| O=C(CCc1ccccc1)Nc1ccc2c(c1)OCO2 | -16.3% |  | 29.1 µM [rising, single point] |
| Cc1ccc(N2C(=N)SCC2=O)cc1Cl |  |  | 3.66 µM [falling, single point] |
| CC(NC(=O)COC(=O)CCN1C(=O)C2CC=CCC2C1=O)c1ccc(Br)cc1 (centres undefined) |  |  | 0.00461 µM [falling, full curve, poor fit] |
| COc1ccc(CCCc2nnc(SCC(=O)Nc3nc(C)cs3)n2C)cc1 | -53.6% | 16.4 µM [falling, partial curve] | 14.6 µM [falling, partial curve] |
| CCOC(=O)N1CCN(S(=O)(=O)c2ccc(C(=O)N(CCCN(C)C)c3nc4cc(OC)ccc4s3)cc2)CC1 |  | 3.66 µM [rising, partial curve] |  |
| CCc1cccc(NC(=O)c2ccc(NS(=O)(=O)c3c(C)noc3C)cc2)c1 | -18.1% |  | 4.11 µM [falling, full curve, poor fit] |
| CCCC(=O)NC(=S)N1CCN(c2ccc([N+](=O)[O-])cc2)CC1 | -56.4% | 20.6 µM [falling, single point] | 29.1 µM [falling, single point] |
| COc1ccc(O[C@H]2C=C[C@@H](c3ccccc3)O[C@@H]2COC(=O)CC/C(C)=N/OC[C@@H](O)COCc2ccco2)cc1 | 0.503% |  | 10.3 µM [rising, partial curve] |
| Cc1ccccc1N1CCN(Cc2c(C#N)c3ccccc3n2C)CC1 | -14.5% | 6.51 µM [rising, single point] |  |
